The target of the experiment is (His)6-tagged wild-type RhoA (human) (UniProt P61586). Nature of the experiment: pull-down; (His)6-tagged GTPase held on nickel beads, 2 µg GST-tagged partner added; 20 mM HEPES pH 7.4, 150 mM NaCl, 5 mM MgCl2, 40 mM imidazole, 4 °C, 1 h; GST-tagged protein detected by anti-GST western blot; samples without effect of DC-Rhoin; both purified.

Protein sequences, listed by entry. Tags and fused reporters are not part of them. Lines headed by an entry give the natural chain unless they say otherwise; changes in a name come on top.
UniProt P61586: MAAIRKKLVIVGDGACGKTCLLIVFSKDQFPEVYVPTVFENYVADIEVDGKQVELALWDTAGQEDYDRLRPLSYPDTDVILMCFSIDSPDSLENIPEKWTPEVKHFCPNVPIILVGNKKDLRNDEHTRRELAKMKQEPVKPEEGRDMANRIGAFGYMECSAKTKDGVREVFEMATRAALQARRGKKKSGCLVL

These are yes or no findings as the source states them, for the method shown. Binding can be weak; no strength is given. Sequences can lack the tags named with a protein.

Data on 2 molecules can be found in PMC7375240, “Covalent Inhibitors Allosterically Block the Activation of Rho Family Proteins and Suppress Cancer Cell Invasion” (Advanced Science, 2020).

B1: GST-tagged RhoGDI (guanine nucleotide dissociation inhibitor ARHGDIA) (protein, UniProt P52565 1-204)
chain: MAEQEPTAEQLAQIAAENEEDEHSVNYKPPAQKSIQEIQELDKDDESLRKYKEALLGRVAVSADPNVPNVVVTGLTLVCSSAPGPLELDLTGDLESFKKQSFVLKEGVEYRIKISFRVNREIVSGMKYIQHTYRKGVKIDKTDYMVGSYGPRAEEYEFLTPVEEAPKGMLARGSYSIKSRFTDDDKTDHLSWEWNLTIKKDWKD
Consider B1, for which the binding entry is “binds”.

B2: GST-tagged ARAP3 (Arf-GAP with Rho-GAP domain, ANK repeat, and PH domain-containing protein 3), RhoGAP domain (domain or fragment, UniProt Q8WWN8 906-1107)
chain: GTGLQEQQMSRGDIPIIVDACISFVTQHGLRLEGVYRKGGARARSLRLLAEFRRDARSVKLRPGEHFVEDVTDTLKRFFRELDDPVTSARLLPRWREAAELPQKNQRLEKYKDVIGCLPRVNRRTLATLIGHLYRVQKCAALNQMCTRNLALLFAPSVFQTDGRGEHEVRVLQELIDGYISVFDIDSDQVAQIDLEVSLITT
For B2, the binding result is on record as “binds”.
